Data: patent CN115124620A
Results are given in words; binding and its absence hold for the method and conditions named. Some binding calls cover weakened binding; strength is not graded here.

Protein sequences, listed by entry. Tags and fused reporters are not part of them. Residues count along the entry.
UniProt O14931, residues 19-201: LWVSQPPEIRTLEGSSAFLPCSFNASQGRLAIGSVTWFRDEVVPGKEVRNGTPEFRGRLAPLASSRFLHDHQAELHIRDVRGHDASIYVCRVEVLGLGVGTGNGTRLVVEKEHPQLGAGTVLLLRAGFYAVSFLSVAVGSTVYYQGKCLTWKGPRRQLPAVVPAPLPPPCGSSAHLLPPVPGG

B1: 抗体1 (antibody, V domains shown)
VH: QVQLQQPGAELVKPGASVKLSCKASGYTFTSYWMEWVKLRPGQGFDWIGEINPSNGGTNYNEKFKRKAILTVDKSSSAAYMQLSGLTSEDSAVYYCTIGGDYAWFAYWGQGTLVTVSA
VL: DIKMTQSPSSMYASLGERVTITCKASQDIKSYLSWYQQKPWKSPKTLIFYATSLADGVPSRFSASGSGQDYSLTISSLESDDTATYYCLQHGESPYTFGGGTKLEIK
B2: 抗体2 (antibody, V domains shown)
VH: EVQLQQFGAELVKPGASVKISCKASGYTFTDYNMDWVKQSHGKSLEWIAYINPNYEITTYNQKFKGKATLTVDKSSSTAYMELRSLTSEDTAVYYCARGRGGYDPAMDYWGQGTSVTVSS
VL: SIVMTQTPKFLLVSAGDRVTITCKASQSVSNDVTWSQQKPGQSPKLLIYYASNRYTGVPDRFTGSGYGTDFTFTISTVQAEDLAVYLCQQDNSTPPTFGAGTKLELK
B3: 抗体3 (antibody, V domains shown)
VH: QGQLQQSGAEVMKPGASVKISCKANGHTFGSYWIEWIKQRPGHGLEWIGEILPGSGSKKYNEKFEGKATFTEETSSNTAYMELTSLTSEDSAVYYCSRGGYYGSRFAYWGQGTLVTVSA
VL: DVVLTQTPLSLPVNIGDQASISCKSTKSLLNSDGFTYLDWYLQKPGQSPQLLIYLVSNRFSGVPDRFSGSGSGTDFTLKISRVEAEDLGVYYCFQSNYLPFTFGSGTKLEIK
B4: 抗体4 (antibody, V domains shown)
VH: EVQLVESGGGLVKPGGSLKLSCAASGFTFSDYGMSWIRQTPEKRLEWVASISSGGTYTYYPDSVKGRFTISRDSAKNTLYLQMNSLRSEDTAMYYCARRDGYYSVEYWGQGTSVTVSS
VL: QIVLTQSPAIMSASPGGEVTMTCSASSSVSFMHWYQQKSGTSPKRWIFDTSKLASGVPTRFSGSGSGTSYSLTISSMEAEDAATYYCQQWTTNPPTFGGGTKLEIK
B5: 抗体5 (antibody, V domains shown)
VH: VLILKESGGGLVKPGGSLKLSCAASGFAFSSYDMSWVRQTPEKRLEWVATISSGGSYTYYPDSVKGRFTISRDNARNTLYLQMSSLRSEDTALYYCARHFGDHDGYVMDYWGQGTSVIVSS
VL: DIVMTQSPSSLAMSLGQKVTMSCKSSQSLLNSSNQKSNLAWYQQKPGQSPKLLVYFASTRESGVPDRFIGSGSGTDFSLTIRSVQAEDLADYFCQQHYSTPFTFGSGTKLEIK
B6: 抗体6 (antibody, V domains shown)
VH: QVQLQQSGAELVRPGVSVKISCKGSGYTFTDYAMHWVKQSHAKSLEWIGIISTYYGDASYNQKFKGKATMTVDKSSSTAYMELARLTSEDSAIYYCARDYDNRYAAMDYWGQGTSVTVSS
VL: DIVMTQAAFSNPVTLGTSASISCRSSKSLLHSNGITYLYWYLQKPGQSPQLLIYQMSNLASGVPDRFSSSGSGTDFTLRISRVEAEDVGVYYCAQNLELPYTFGGGTKLEIK

Biological target: NKp30 on NK cells (UniProt O14931)
Assay: flow cytometry on NK cells, antibody titrated from 40 μg/mL, FITC anti-mouse secondary

| Binder | binding |
| --- | --- |
| B1 | binds |
| B2 | binds |
| B3 | binds |
| B4 | binds |
| B5 | binds |
| B6 | binds |
